No constants are given. Whether binding was seen depends on the method and setting. For some assays here: Binding seen in cells or lysates may run through a third protein. Some entries that bind do so weakly or less than the wild type.

Amino acid sequences for entries named in this document (tags omitted).
UniProt P31315: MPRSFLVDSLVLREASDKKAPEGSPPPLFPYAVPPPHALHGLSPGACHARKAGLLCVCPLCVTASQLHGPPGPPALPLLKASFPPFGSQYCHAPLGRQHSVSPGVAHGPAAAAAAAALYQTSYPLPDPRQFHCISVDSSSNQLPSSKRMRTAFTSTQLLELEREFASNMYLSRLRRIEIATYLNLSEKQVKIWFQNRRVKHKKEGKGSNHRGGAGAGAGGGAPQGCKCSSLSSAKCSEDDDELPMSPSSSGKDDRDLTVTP
UniProt P31316: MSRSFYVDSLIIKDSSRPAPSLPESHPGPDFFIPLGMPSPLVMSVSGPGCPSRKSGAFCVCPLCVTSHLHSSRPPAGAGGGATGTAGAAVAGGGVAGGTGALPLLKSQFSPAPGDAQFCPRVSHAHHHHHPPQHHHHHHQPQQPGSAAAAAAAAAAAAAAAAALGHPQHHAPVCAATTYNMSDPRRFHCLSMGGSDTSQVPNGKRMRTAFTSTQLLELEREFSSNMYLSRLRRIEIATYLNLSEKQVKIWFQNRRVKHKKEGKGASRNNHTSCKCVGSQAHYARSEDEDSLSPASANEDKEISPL

Drawing on publication doi:10.1101/794511, this text covers binding for five molecules.

For experiment [1], the target named is Gsx1, yeast two-hybrid bait in pGBKT7 (UniProt P31315). Description: two-hybrid.
Experiment [2] addresses Gsx2 (full-length), yeast two-hybrid bait in pGBKT7 (mouse) (UniProt P31316). The experiment is described as follows: two-hybrid.
For experiment [3], the target named is Gsx2, yeast three-hybrid bait (pBRIDGE MCS1) (mouse) (UniProt P31316). The experiment is described as follows: yeast three-hybrid.
Experiment [4] has as its target Gsx2, endogenous in the E12.5 mouse telencephalon (mouse (endogenous in E12.5 telencephalon)) (UniProt P31316). The experiment is described as follows: co-IP.
Experiment [5] shares this target. Description: proximity ligation.

B1: Ascl1, yeast two-hybrid prey in pGADT7 (protein, UniProt Q02067 1-231)
chain: MESSGKMESGAGQQPQPPQPFLPPAACFFATAAAAAAAAAAAAQSAQQQQPQAPPQQAPQLSPVADSQPSGGGHKSAAKQVKRQRSSSPELMRCKRRLNFSGFGYSLPQQQPAAVARRNERERNRVKLVNLGFATLREHVPNGAANKKMSKVETLRSAVEYIRALQQLLDEHDAVSAAFQAGVLSPTISPNYSNDLNSMAGSPVSSYSSDEGSYDPLSPEEQELLDFTNWF
On to B1, for which the values for the binding entry in experiment [1], in experiment [2] and in experiment [3] were “no binding”, “binds” and “binds”, respectively.

B2: Ascl1, endogenous in the E12.5 mouse telencephalon (protein, UniProt Q02067 1-231)
chain: B1 chain
As to B2, the binding entry in experiment [4] and in experiment [5] was “binds” in each case.

For SNDLNSMAGSPVSSYSSDEGSYDPLSPEEQELLDFTNWF (domain or fragment, UniProt Q02067 193-231) [Ascl1 C terminus (Ascl1^193-231), yeast two-hybrid prey], the binding result in experiment [2] is “no binding”.

B3: Ascl1 N-terminus (Ascl1^1-131), yeast two-hybrid prey (domain or fragment, UniProt Q02067 1-131)
chain: MESSGKMESGAGQQPQPPQPFLPPAACFFATAAAAAAAAAAAAQSAQQQQPQAPPQQAPQLSPVADSQPSGGGHKSAAKQVKRQRSSSPELMRCKRRLNFSGFGYSLPQQQPAAVARRNERERNRVKLVNL
With B3, in experiment [2], the binding entry was “no binding”.

B4: Ascl1 bHLH domain (Ascl1^97-193), yeast two-hybrid prey (domain or fragment, UniProt Q02067 97-193)
chain: RLNFSGFGYSLPQQQPAAVARRNERERNRVKLVNLGFATLREHVPNGAANKKMSKVETLRSAVEYIRALQQLLDEHDAVSAAFQAGVLSPTISPNYS
Take B4: in experiment [2], the binding result was “binds”.
